Results from article PMC1215486.
No constants are given. Whether binding was seen depends on the method and setting. Binding seen in cells or lysates may run through a third protein. Some binding calls cover weakened binding; strength is not graded here. Tags and fused reporters may be left off the sequences shown.

Chains of the proteins cited; added tags and fusions are not shown. Residues count along the entry.
UniProt Q9ULL4, residues 45-1909: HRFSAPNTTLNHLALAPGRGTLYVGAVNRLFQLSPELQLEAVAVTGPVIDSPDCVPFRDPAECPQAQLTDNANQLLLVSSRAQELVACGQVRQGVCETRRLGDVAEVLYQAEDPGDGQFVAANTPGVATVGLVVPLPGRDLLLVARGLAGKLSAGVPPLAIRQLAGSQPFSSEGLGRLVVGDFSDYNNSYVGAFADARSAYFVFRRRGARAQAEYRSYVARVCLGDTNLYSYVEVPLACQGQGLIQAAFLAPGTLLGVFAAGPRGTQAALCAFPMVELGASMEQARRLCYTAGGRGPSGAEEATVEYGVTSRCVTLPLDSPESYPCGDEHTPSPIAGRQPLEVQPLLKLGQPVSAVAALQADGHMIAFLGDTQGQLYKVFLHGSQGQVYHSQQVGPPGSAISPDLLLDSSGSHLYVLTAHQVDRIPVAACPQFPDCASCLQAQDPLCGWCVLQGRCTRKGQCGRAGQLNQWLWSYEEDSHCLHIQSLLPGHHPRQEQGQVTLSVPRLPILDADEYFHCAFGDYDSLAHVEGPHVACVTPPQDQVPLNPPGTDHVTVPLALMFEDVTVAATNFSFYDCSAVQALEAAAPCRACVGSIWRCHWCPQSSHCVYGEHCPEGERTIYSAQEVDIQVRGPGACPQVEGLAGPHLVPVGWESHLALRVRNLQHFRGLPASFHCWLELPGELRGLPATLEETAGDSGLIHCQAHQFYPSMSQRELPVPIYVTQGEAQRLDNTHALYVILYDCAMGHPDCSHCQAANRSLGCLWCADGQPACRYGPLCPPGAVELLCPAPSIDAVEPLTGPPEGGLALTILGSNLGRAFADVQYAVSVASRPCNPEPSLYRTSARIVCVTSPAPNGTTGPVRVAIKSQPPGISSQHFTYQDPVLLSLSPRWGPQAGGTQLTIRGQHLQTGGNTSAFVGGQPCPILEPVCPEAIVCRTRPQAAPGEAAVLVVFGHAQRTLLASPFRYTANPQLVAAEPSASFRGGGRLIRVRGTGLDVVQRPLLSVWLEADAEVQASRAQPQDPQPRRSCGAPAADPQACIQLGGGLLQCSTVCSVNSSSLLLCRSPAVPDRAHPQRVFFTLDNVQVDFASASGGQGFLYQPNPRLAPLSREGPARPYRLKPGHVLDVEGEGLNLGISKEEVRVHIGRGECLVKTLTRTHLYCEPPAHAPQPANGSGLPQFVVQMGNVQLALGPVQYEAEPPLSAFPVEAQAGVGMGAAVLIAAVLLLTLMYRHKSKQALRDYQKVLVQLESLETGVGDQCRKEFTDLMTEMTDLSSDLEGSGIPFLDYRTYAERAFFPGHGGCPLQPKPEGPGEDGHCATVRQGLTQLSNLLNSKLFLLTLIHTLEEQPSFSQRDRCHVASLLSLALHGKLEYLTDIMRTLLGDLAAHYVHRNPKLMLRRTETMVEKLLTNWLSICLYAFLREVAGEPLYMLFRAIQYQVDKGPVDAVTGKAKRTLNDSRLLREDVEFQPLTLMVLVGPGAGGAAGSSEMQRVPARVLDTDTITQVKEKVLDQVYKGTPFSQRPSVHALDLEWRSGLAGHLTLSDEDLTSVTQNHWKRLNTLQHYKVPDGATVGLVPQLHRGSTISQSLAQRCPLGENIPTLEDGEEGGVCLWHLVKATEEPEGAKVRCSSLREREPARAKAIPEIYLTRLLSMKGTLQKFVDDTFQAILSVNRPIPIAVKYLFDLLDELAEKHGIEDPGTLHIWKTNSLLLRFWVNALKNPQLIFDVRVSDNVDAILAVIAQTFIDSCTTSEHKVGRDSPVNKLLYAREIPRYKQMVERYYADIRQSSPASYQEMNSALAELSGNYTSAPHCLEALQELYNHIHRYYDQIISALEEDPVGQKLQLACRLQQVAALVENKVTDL

Target: non-tagged full-length human plexin B3 (pIRES/B3) (human) (UniProt Q9ULL4)
Assay: co-IP; data not shown: recombinant full-length B3 and semaphorin 5A co-expressed in the cells, conditions as for the homophilic co-IP of B3

- binding: binds
B1: human full-length semaphorin 5A (cloned into pFLAG) (ligand, UniProt Q13591 23-1074)
chain: EAQGTTQCQRTEHPVISYKEIGPWLREFRAKNAVDFSQLTFDPGQKELVVGARNYLFRLQLEDLSLIQAVEWECDEATKKACYSKGKSKEECQNYIRVLLVGGDRLFTCGTNAFTPVCTNRSLSNLTEIHDQISGMARCPYSPQHNSTALLTAGGELYAATAMDFPGRDPAIYRSLGILPPLRTAQYNSKWLNEPNFVSSYDIGNFTYFFFRENAVEHDCGKTVFSRAARVCKNDIGGRFLLEDTWTTFMKARLNCSRPGEVPFYYNELQSTFFLPELDLIYGIFTTNVNSIAASAVCVFNLSAIAQAFSGPFKYQENSRSAWLPYPNPNPHFQCGTVDQGLYVNLTERNLQDAQKFILMHEVVQPVTTVPSFMEDNSRFSHVAVDVVQGREALVHIIYLATDYGTIKKVRVPLNQTSSSCLLEEIELFPERRREPIRSLQILHSQSVLFVGLREHVVKIPLKRCQFYRTRSTCIGAQDPYCGWDVVMKKCTSLEESLSMTQWEQSISACPTRNLTVDGHFGVWSPWTPCTHTDGSAVGSCLCRTRSCDSPAPQCGGWQCEGPGMEIANCSRNGGWTPWTSWSPCSTTCGIGFQVRQRSCSNPTPRHGGRVCVGQNREERYCNEHLLCPPHMFWTGWGPWERCTAQCGGGIQARRRICENGPDCAGCNVEYQSCNTNPCPELKKTTPWTPWTPVNISDNGGHYEQRFRYTCKARLADPNLLEVGRQRIEMRYCSSDGTSGCSTDGLSGDFLRAGRYSAHTVNGAWSAWTSWSQCSRDCSRGIRNRKRVCNNPEPKYGGMPCLGPSLEYQECNILPCPVDGVWSCWSPWTKCSATCGGGHYMRTRSCSNPAPAYGGDICLGLHTEEALCNTQPCPESWSEWSDWSECEASGVQVRARQCILLFPMGSQCSGNTTESRPCVFDSNFIPEVSVARSSSVEEKRCGEFNMFHMIAVGLSSSILGCLLTLLVYTYCQRYQQQSHDATVIHPVSPAPLNTSITNHINKLDKYDSVEAIKAFNKNNLILEERNKYFNPHLTGKTYSNAYFTDLNNYDEY
